Experimental data as given in article doi:10.1101/363747.
No constants are given. Whether binding was seen depends on the method and setting. Some entries that bind do so weakly or less than the wild type.

Sequences of proteins named here, by UniProt entry; tags and fusion partners are left off. Residues count along the entry.
UniProt Q5AL36, residues 173-244: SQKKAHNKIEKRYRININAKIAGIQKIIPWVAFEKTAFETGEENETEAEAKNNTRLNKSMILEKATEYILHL

T1: Ofd1 (S. pombe) (UniProt Q11120)
T1 sequence: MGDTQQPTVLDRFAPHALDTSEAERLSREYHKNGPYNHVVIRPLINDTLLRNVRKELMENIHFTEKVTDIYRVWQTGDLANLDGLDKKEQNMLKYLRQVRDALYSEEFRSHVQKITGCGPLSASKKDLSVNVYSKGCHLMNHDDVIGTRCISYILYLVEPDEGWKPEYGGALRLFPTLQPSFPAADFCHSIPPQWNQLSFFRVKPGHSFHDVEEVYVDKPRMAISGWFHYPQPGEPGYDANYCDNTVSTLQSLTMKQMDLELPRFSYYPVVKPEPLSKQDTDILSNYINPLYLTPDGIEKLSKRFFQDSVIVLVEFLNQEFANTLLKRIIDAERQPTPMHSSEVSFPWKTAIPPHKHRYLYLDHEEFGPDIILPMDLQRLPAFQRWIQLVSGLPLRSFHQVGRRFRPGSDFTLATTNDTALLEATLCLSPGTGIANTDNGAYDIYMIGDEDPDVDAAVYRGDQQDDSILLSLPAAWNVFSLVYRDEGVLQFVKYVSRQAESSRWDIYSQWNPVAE

B1: Isa2 (protein, UniProt O43045 1-205)
chain: MLMKSRVNLLFKGPFFFRERCFQTLLNPVIAIRQLSHGSLRNSRSCRIDAKSNTLTKEIFPKINNEFKIKNRFYSSKLANDQFTLQEQCDEKGIPFILYVKDSAKKQLEKIAERKPEENSVLRVTVDGGGCHGYQVSFRMDNKIGNADTVFVRGKARVVADNISLPLISGSEIEYTNELIGSSFQLLNNPRAKTSCGCNVSFDVE
B2: Sum1 (eIF3i) (protein, UniProt P79083 1-328)
chain: MRPIILQGHERPLTQIKYNHDGDLLFSCAKDKVINVWFSHNGERLGTYEGHTGAIWTCDINKSSTLMVSGAADNTMRLWDVKTGKQLYKWEFPTAVKRVEFNEDDTRILAVTEERMGYAGTVTVFRVPISESDAAAETPLYVITTRESKATVAGWSYLSKFLFTGHEDGSVSRYDAITGEFVESKQVHNSGSTITDLQFYPDRTYFITSCKDTTAKAIDVDSFEVIKTYLTDTPLNTSSFTPVQDFVILGGGQEARDVTTTAARQGKFEARFYHAILEEELGRVKGHFGPINTIAVHPKGTGYASGGEDGYVRVHFFDKNYFDFKYTL
B3: bHLH domain of Hms1 of S. cerevisiae (domain or fragment, UniProt Q12398 266-341)
chain: TGRVSHNIIEKKYRSNINDKIEQLRRTVPTLRVAYKKCNDLPITSRDLADLDGLEPATKLNKASILTKSIEYICHL
B4: Rps20 (protein, UniProt O74893 1-118)
chain: MSQVAKDQKEQQIPSTVHRIRITLTSRNVRNLEKVCSDLVNRAKDKQLRVKGPVRLPTKILKITTRKTPNGEGSKTWETYEMRIHKRLIDLHSPSEIVKQITSIHIEPGVEVEVTIAQ
B5: Fin1 (enzyme, UniProt O13839 1-722)
chain: MEKYKILECIGHGSFGRIYKVQRLKDGALLAQKEIHFGNITRQEKQYIADEVNILRNLKHPNIVQYCGEELNRSAQVINLYMEYCGHGDLANLIQRYKEEKKRFTEQEVLKFFTQLLLALYRCHYGENAPACDSQWPREIFHPKQSVLHRDIKPANIFLDENNSVKLGDFGLSKLLDNTRVFTQSYVGTPYYMSPEIIRSSPYSAKSDVWALGCVIFEICMLTHPFEGRSYLELQRNICQGNLSCWDHHYSDDVFLLIRHCLEVNSDLRPTTYQLLRSPILSDIRSKLESERVVLEQSDLLHKKHQMLIQLENDLQFREQRLSARESELENVIASRLAQREEILRRELEKQLRDMDARYQRHMQTVVNSMQKMRVTSPVDHNEQPESSTAEMFVDCTIEASQSPLLHIPKLGISKPLQTLSCPGFTLTTQQPILKRPTLRKELSSRALHTTATLMKYRANASSLRTTPIDKDGQITSLQQKNGTSNQVADCMNKLLHTSLDGKKLSPSELCNKFSDGEGLPNRKVSKLSVESDETAVSASSGESVPTDSTLTDTKSKSVFVHPPSPQSLYVEKLEKLNIRSDEVSKPSKASKTLHGYALPSLASPYDVHAEEKIARENEMDGNFKTMKINQHPDEYVLRTPKKIQLLEGQKRSPVKQLGRLGYNKLRRSAMDNAGLELRKAASTSNYTSLQSRTLPGSWRDDEEEIPRPFLRKMLDARMMRA
B6: Pdb1 (enzyme, UniProt Q09171 1-366)
chain: MIRLQKFGEIVGTSRSWKLLSSTIAKRYSSSSNGVKEMTVRDALNSAMEEEMKRDDRVFLIGEEVAQYNGAYKISRGLLDKFGPKRVIDTPITEMGFTGLATGAAFAGLRPICEFMTFNFSMQAIDHIVNSAARTLYMSGGIQACPIVFRGPNGPAAAVAAQHSQHFAPWYGSIPGLKVVSPYSAEDARGLLKAAIRDPNPVVVLENEILYGKTFPISKEALSEDFVLPFGLAKVERPGKDITIVGESISVVTALEAADKLKADYGVEAEVINLRSIRPLDINTIAASVKKTNRIVTVDQAYSQHGIGSEIAAQIMESDAFDYLDAPVERVSMADVPMPYSHPVEAASVPNADVVVAAAKKCLYIK
B7: Tif35 (eIF3g) (protein, UniProt P78795 1-282)
chain: MSSSKSLDWADDEDYGTGLPSIQTFDNPDGTKTMIEFRIDDNGKKVKVTRVIRKTVITERVQHAVAERKKWKKFGKEAGKNSGVDARTTSVGENVQLRLQLGWTTTKEEEQDEAALAAAKVKAKGSSVVRCRACKGNHFTAQCPYKSIIGPVDEPPLDASPVSSRASGALGEKGRYIAPHLRAGSGRESGDSMFKRERDDSATLRVTNLSDDTREEELRDLFRRFGGIQRVYLAKDKETGRAKGFAFVSYYDRDCAIKARDRLDGYGWNNLILRCEFSKPRD
B8: bHLH domain of Tye7 of S. cerevisiae (domain or fragment, UniProt P33122 180-265)
chain: FQKQAHNKIEKRYRININTKIARLQQIIPWVASEQTAFEVGDSVKKQDEDGAETAATTPLPSAAATSTKLNKSMILEKAVDYILYL

target: T1, Ofd1 (S. pombe); assay: two-hybrid

Row | binding | Molecule
1 | binds | B1
2 | binds | B2
3 | binds | B3
4 | binds | B4
5 | binds | B5
6 | binds | B6
7 | binds | B7
8 | binds | B8

target: T1, Ofd1 (S. pombe); assay: two-hybrid; remark: another data set of the same source

Row | Molecule | binding
9 | bHLH domain of Tye7 of C. albicans (from UniProt Q5AL36 173-244) (domain or fragment) | binds
